# US20190352341A1, “MODIFIED PEPTIDES AND THEIR USE FOR TREATING SYSTEMIC LUPUS ERYTHEMATOSUS” (IMMUPHARMA FRANCE SA, priority 2018, published 2019)
# Numbered stars: 1 amine (or outer) side, 2 acyl side, 3 side chain; on linkers, the order of the positions; unused ones are H or OH. Square brackets hold non-standard residues; d marks the D form. Peptide text beside a SMILES is read from it. ξ: configuration not given here. X1 = CSCC[C@H](NC(=N)[C@H](Cc1c[nH]cn1)N[*:1])C(=O)[*:2]; pS = N[C@@H](COP(=O)(O)O)C(=O)O; Ile(3ξ) = CCC(C)[C@H](N)C(=O)O
# Test system: MRL/lpr B cells
# Experiment: Cellular uptake of fluorescent P140 peptide in MRL/lpr B cells
# Type: cell-based, mouse
compound,measurement,setting,value
CCC(C)[C@H](NC(=O)[C@H](Cc1ccccc1)NC(=O)[C@H](C)NC(=O)[C@H](Cc1ccc(O)cc1)NC(=O)CNC(=O)[C@H](CCCNC(=N)N)NC(=O)[C@@H]1CCCN1C(=O)[C@H](CCCCN)NC(=O)CNC(=O)[C@H](COP(=O)(O)O)NC(=O)[C@H](CCCNC(=N)N)NC(=O)[C@H](CCCCN)NC(=O)[C@H](CO)NC(=O)[C@H](Cc1ccc(O)cc1)NC(=O)[C@@H](NC(=O)[C@H](CCSC)NC(=N)[C@H](Cc1c[nH]cn1)NC(=O)[C@@H](NC(=O)[C@@H](N)CCCNC(=N)N)C(C)CC)C(C)C)C(=O)N[C@@H](CCC(=O)O)C(=O)N[C@@H](Cc1ccc(O)cc1)C(=O)O (some centres unmarked) [Compound P140] (H-R[Ile(3ξ)][X1]VYSKR[pS]GKPRGYAF[Ile(3ξ)]EY-OH),"Cellular uptake, flow cytometry","MRL/lpr B cells, peptide in 10% trehalose compared with 5.4% mannitol",Much less cellular uptake
same,"Entry into B cells, confocal microscopy",peptide in trehalose compared with mannitol,enters B cells much less
